The subject of one data set is mice. Conditions: oral route; cited from earlier work.
The subject of a further data set is EOC-20 cells. Conditions: Table III; MTT viability; by extrapolation through sublethal concentrations. Here is the method:
Lower IC50 values indicate improved efficacy. FIG. 2 illustrates the principle of the measurement using NDGA as an example test agent. In order to determine viability, cell culture medium was replaced with phenol-free DMEM (Gibco) containing 20 μL/mL of MTT viability reagent (Promega). […] Control cells were taken to indicate 100% viability and intermediate values of MTT reduction were scaled to percentage of control. For each compound, an LD50 value was determined by extrapolation through sublethal concentrations. This value represents the concentration that reduced the MTT viability parameter by 50%.

A word on the LD50: it is the dose at which mortality reaches 50%.

Consider `Nc1nc2ccc(OC(F)(F)F)cc2s1` [Riluzole], for which the LD50 with mice is 94 mg/kg; in the data set on EOC-20 cells, “nontoxic”.

Source of the values: patent US20040014721A1, “Method for using tethered bis(polyhydroxyphenyls) and O-alkyl derivatives thereof in treating inflammatory conditions of the central nervous system” (Oklahoma Medical Research Foundation, priority 2002, published 2004).
